Test results: article PMC4703840
Protein sequences can lack the tags named with them.

Biological target: T1, ExuR (Escherichia coli TOP10) (UniProt P0ACL3)
T1 sequence (looked up): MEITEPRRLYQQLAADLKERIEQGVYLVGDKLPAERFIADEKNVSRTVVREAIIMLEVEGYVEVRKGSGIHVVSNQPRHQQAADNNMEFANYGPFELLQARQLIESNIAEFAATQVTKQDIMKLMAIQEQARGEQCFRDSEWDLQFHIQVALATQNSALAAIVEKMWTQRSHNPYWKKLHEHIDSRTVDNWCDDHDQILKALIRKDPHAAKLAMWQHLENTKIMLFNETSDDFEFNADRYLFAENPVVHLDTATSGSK
Test: DNaseI footprinting
Conditions: poly-dIdC 1 µg; 7.5 mM Tris-HCl pH 7.4, 0.5 mM EDTA, 5 mM KCl, 2.5% glycerol, 0.5 mM DTT, 0.4 µg BSA, 1 µg poly-dIdC; probe 37 C 20 min, DNaseI 26 C 5 min; protein translated in vitro; residues 1-258; probe letters rebuilt from the primers and the genome

“TGACGAGTAGACGCTGGTAGTTTCGTGCTAATTCGGCTTCCGTACCGGTTAACCCGATTCATCTAACAAATGAATGAATCGGCAATTTGCATTCCGTCGACTTATGATTTGCGACGGCAGAAAGATAACTTGTCATACAACTTTAAAAGGTGAGAGCCATCACAAATGTGGGAATATTTGTAGGGACATTACCTGACGACAGCAAGGCCAGTACTGGCGCGGCCTGCAGCGAGATTTACCACTTTGAGAGTAATTTTTTTAACTACGTTTATTGATCTAACTCACGAAAATATCTTCGGACTCTGGAAATTGGTGTGATAACTTTGTCAGCATCGCACCATAAGCAAGCTAGCTCACTCGTTGAGAGGAAGACGAAAATGACTCCGTTTATGACTGATCGATACCGTCGACCTCGA (double strand) [exuT promoter]”: binds.
